# Some of the results follow.
# What was measured:
# Test in all cases: glycan array binding signal (z-score within array); higher = stronger binding
# Conditions in all cases: glycan notation: IUPAC condensed, linker removed
# [1] = target: Fuc(a1-3)[Gal(b1-4)]GlcNAc(b1-2)Man
# Outline: (§1)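 Negative Z-scores can be read as non-binding. The Z-score is calculated within each array and then averaged across arrays of one protein sequence at different concentrations or buffers and across linkers. Arrays, 3228 in all, were curated from the Consortium for Functional Glycomics database and kept only where the protein sequence was available.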
# [2] = target: Fuc(a1-3)[Gal(b1-4)]GlcNAc(b1-2)Man(a1-3)[Fuc(a1-3)[Gal(b1-4)]GlcNAc(b1-2)Man(a1-6)]Man(b1-4)GlcNAc(b1-4)GlcNAc
# Outline: as §1
# [3] = target: Fuc(a1-3)[Gal(b1-4)]GlcNAc(b1-2)Man(a1-3)[Fuc(a1-3)[Gal(b1-4)]GlcNAc(b1-2)Man(a1-6)]Man(b1-4)GlcNAc(b1-4)[Fuc(a1-6)]GlcNAc
# Outline: as §1
# [4] = target: Fuc(a1-3)[Gal(b1-4)]GlcNAc(b1-3)Gal(b1-3)[Fuc(a1-4)]GlcNAc
# Outline: as §1
# [5] = target: Fuc(a1-3)[Gal(b1-4)]GlcNAc(b1-3)GalNAc
# Outline: as §1
# [6] = target: Fuc(a1-3)[Gal(b1-4)]GlcNAc(b1-4)Gal(b1-4)[Fuc(a1-3)]GlcNAc
# Outline: as §1
# [7] = target: Fuc(a1-3)[Gal(b1-4)]GlcNAc(b1-4)Gal(b1-4)[Fuc(a1-3)]GlcNAc(b1-4)Gal(b1-4)[Fuc(a1-3)]GlcNAc
# Outline: as §1
# [8] = target: Fuc(a1-3)[Gal(b1-4)]GlcNAc(b1-6)GalNAc
# Outline: as §1
# [9] = target: Fuc(a1-3)[Gal(b1-4)]GlcNAc(b1-6)[Gal(b1-3)GlcNAc(b1-3)]Gal(b1-4)Glc
# Outline: as §1
# [10] = target: Fuc(a1-3)[Gal(b1-4)]GlcNAc(b1-6)[Neu5Ac(a2-3)Gal(b1-3)]GalNAc
# Outline: as §1
# [11] = target: Fuc(a1-3)[Gal(b1-4)]GlcNAc6S
# Outline: as §1
# [12] = target: Fuc(a1-3)[Gal3S(b1-4)]Glc
# Outline: as §1
# [13] = target: Fuc(a1-3)[Gal3S(b1-4)]GlcNAc
# Outline: as §1
# [14] = target: Fuc(a1-3)[Gal3S(b1-4)]GlcNAc6S
# Outline: as §1
# [15] = target: Fuc(a1-3)[GalNAc(b1-4)]GlcNAc
# Outline: as §1
# [16] = target: Fuc(a1-3)[GalNAc(b1-4)]GlcNAc6S
# Outline: as §1
# Fuc(a1-4)GlcNAc = target: Fuc(a1-4)GlcNAc
# Outline: as §1
# Fuc(b1-3)GlcNAc = target: Fuc(b1-3)GlcNAc
# Outline: as §1
# Gal(a1-2)Gal = target: Gal(a1-2)Gal
# Outline: as §1
# Gal(a1-3)Gal = target: Gal(a1-3)Gal
# Outline: as §1
# Gal(a1-3)Gal(b1-3)GlcNAc = target: Gal(a1-3)Gal(b1-3)GlcNAc
# Outline: as §1
# [17] = target: Gal(a1-3)Gal(b1-3)GlcNAc(b1-2)Man
# Outline: as §1
# [18] = target: Gal(a1-3)Gal(b1-3)GlcNAc(b1-2)Man(a1-3)[Gal(a1-3)Gal(b1-3)GlcNAc(b1-2)Man(a1-6)]Man(b1-4)GlcNAc(b1-4)GlcNAc
# Outline: as §1
# [19] = target: Gal(a1-3)Gal(b1-3)GlcNAc(b1-3)GalNAc
# Outline: as §1
# [20] = target: Gal(a1-3)Gal(b1-3)GlcNAc(b1-6)GalNAc
# Outline: as §1
# [21] = target: Gal(a1-3)Gal(b1-3)[Fuc(a1-4)]GlcNAc(b1-2)Man(a1-3)[Gal(a1-3)Gal(b1-3)[Fuc(a1-4)]GlcNAc(b1-2)Man(a1-6)]Man(b1-4)GlcNAc(b1-4)GlcNAc
# Outline: as §1
# Gal(a1-3)Gal(b1-4)Glc = target: Gal(a1-3)Gal(b1-4)Glc
# Outline: as §1
# Gal(a1-3)Gal(b1-4)GlcNAc = target: Gal(a1-3)Gal(b1-4)GlcNAc
# Outline: as §1
# [22] = target: Gal(a1-3)Gal(b1-4)GlcNAc(b1-2)Man
# Outline: as §1
# [23] = target: Gal(a1-3)Gal(b1-4)GlcNAc(b1-2)Man(a1-3)[Gal(a1-3)Gal(b1-4)GlcNAc(b1-2)Man(a1-6)]Man(b1-4)GlcNAc(b1-4)GlcNAc
# Outline: as §1
# [24] = target: Gal(a1-3)Gal(b1-4)GlcNAc(b1-3)GalNAc
# Outline: as §1
# [25] = target: Gal(a1-3)Gal(b1-4)GlcNAc(b1-6)GalNAc
# Outline: as §1
# [26] = target: Gal(a1-3)Gal(b1-4)[Fuc(a1-3)]GlcNAc
# Outline: as §1
# [27] = target: Gal(a1-3)Gal(b1-4)[Fuc(a1-3)]GlcNAc(b1-2)Man(a1-3)[Gal(a1-3)Gal(b1-4)[Fuc(a1-3)]GlcNAc(b1-2)Man(a1-6)]Man(b1-4)GlcNAc(b1-4)GlcNAc
# Outline: as §1
# Gal(a1-3)GalNAc = target: Gal(a1-3)GalNAc
# Outline: as §1
# [28] = target: Gal(a1-3)[Gal(a1-4)]Gal(b1-4)GlcNAc
# Outline: as §1
# [29] = target: Gal(a1-4)Gal(b1-3)GlcNAc(b1-2)Man(a1-3)[Gal(a1-4)Gal(b1-3)GlcNAc(b1-2)Man(a1-6)]Man(b1-4)GlcNAc(b1-4)GlcNAc
# Outline: as §1
# Gal(a1-4)Gal(b1-4)Glc = target: Gal(a1-4)Gal(b1-4)Glc
# Outline: as §1
binder,measurement,setting,value
"Gal 12 (Homo sapiens), Q96DT0 (protein) MSQPSGGRAPGTRIYSWSCPTVMSPGEKLDPIPDSFILQPPVFHPVVPYVTTIFGGLHAGKMVMLQGVVPLDAHRFQVDFQCGCSLCPRPDIAFHFNPRFHTTKPHVICNTLHGGRWQREARWPHLALRRGSSFLILFLFGNEEVKVSVNGQHFLHFRYRLPLSHVDTLGIFGDILVEAVGFLNINPFVEGSREYPAGHPFLLMSPRLEVPCSHALPQGLSPGQVIIVRGLVLQEPKHFTVSLRDQAAHAPVTLRASFADRTLAWISRWGQKKLISAPFLFYPQRFFEVLLLFQEGGLKLALNGQGLGATSMNQQALEQLRELRISGSVQLYCVHS",glycan array binding signal (z-score),[1],1.12
same,glycan array binding signal (z-score),[2],-0.687
same,glycan array binding signal (z-score),[3],1.62
same,glycan array binding signal (z-score),[4],-0.129
same,glycan array binding signal (z-score),[5],2.44
same,glycan array binding signal (z-score),[6],-0.147
same,glycan array binding signal (z-score),[7],-0.462
same,glycan array binding signal (z-score),[8],1
same,glycan array binding signal (z-score),[9],-0.581
same,glycan array binding signal (z-score),[10],0.106
same,glycan array binding signal (z-score),[11],-0.492
same,glycan array binding signal (z-score),[12],-0.65
same,glycan array binding signal (z-score),[13],0.346
same,glycan array binding signal (z-score),[14],1.35
same,glycan array binding signal (z-score),[15],-0.125
same,glycan array binding signal (z-score),[16],-0.584
same,glycan array binding signal (z-score),Fuc(a1-4)GlcNAc,0.116
same,glycan array binding signal (z-score),Fuc(b1-3)GlcNAc,-0.119
same,glycan array binding signal (z-score),Gal(a1-2)Gal,-0.863
same,glycan array binding signal (z-score),Gal(a1-3)Gal,-0.212
same,glycan array binding signal (z-score),Gal(a1-3)Gal(b1-3)GlcNAc,0.367
same,glycan array binding signal (z-score),[17],0.199
same,glycan array binding signal (z-score),[18],0.642
same,glycan array binding signal (z-score),[19],-0.275
same,glycan array binding signal (z-score),[20],-0.189
same,glycan array binding signal (z-score),[21],-0.493
same,glycan array binding signal (z-score),Gal(a1-3)Gal(b1-4)Glc,-0.527
same,glycan array binding signal (z-score),Gal(a1-3)Gal(b1-4)GlcNAc,0.262
same,glycan array binding signal (z-score),[22],-0.434
same,glycan array binding signal (z-score),[23],-1.25
same,glycan array binding signal (z-score),[24],-0.345
same,glycan array binding signal (z-score),[25],-0.68
same,glycan array binding signal (z-score),[26],-0.247
same,glycan array binding signal (z-score),[27],0.735
same,glycan array binding signal (z-score),Gal(a1-3)GalNAc,0.351
same,glycan array binding signal (z-score),[28],1.74
same,glycan array binding signal (z-score),[29],-0.552
same,glycan array binding signal (z-score),Gal(a1-4)Gal(b1-4)Glc,1.26

# Two entries picked at random from those above, as already listed:
binder,measurement,setting,value
"Gal 12 (Homo sapiens), Q96DT0 (protein) MSQPSGGRAPGTRIYSWSCPTVMSPGEKLDPIPDSFILQPPVFHPVVPYVTTIFGGLHAGKMVMLQGVVPLDAHRFQVDFQCGCSLCPRPDIAFHFNPRFHTTKPHVICNTLHGGRWQREARWPHLALRRGSSFLILFLFGNEEVKVSVNGQHFLHFRYRLPLSHVDTLGIFGDILVEAVGFLNINPFVEGSREYPAGHPFLLMSPRLEVPCSHALPQGLSPGQVIIVRGLVLQEPKHFTVSLRDQAAHAPVTLRASFADRTLAWISRWGQKKLISAPFLFYPQRFFEVLLLFQEGGLKLALNGQGLGATSMNQQALEQLRELRISGSVQLYCVHS",glycan array binding signal (z-score),Fuc(b1-3)GlcNAc,-0.119
same,glycan array binding signal (z-score),[24],-0.345

# From the supplement of paper PMC8728848
